The list shows a part of the results.
Each target was assayed with c1cn2cc(-c3ccc4cn[nH]c4c3)nc(Nc3ccc(N4CCOCC4)cc3)c2n1 [entospletinib] (assay: log2 fold change, soluble protein after heating vs DMSO (PISA); higher = thermal stabilisation; K562 cells, 10 uM, 30 min; active = over 0.2 and 3.5 SD of the protein, either way, in both replicates (recomputed)).
Procedure, shortened: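 K562 cells at 2×10^6 cells/mL were exposed to 10 μM compound for 30 min, then aliquots were heated for 3 min across 48°C-58°C, pooled, and extracted in PBS containing 0.5% NP-40 at 4°C. The supernatant after 21,000xg for 90 min was taken as soluble protein and measured by TMTpro 16plex LC-MS/MS with channel sums equalised. Thermal stability is reported relative to control samples, with values from duplicates. Fold changes are given on a log2 scale.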

Sequences of proteins named here, by UniProt entry; tags and fusion partners are left off. A change or cut given only in a name is not applied to a line headed by its entry.
UniProt O00399, whole entry, looked up: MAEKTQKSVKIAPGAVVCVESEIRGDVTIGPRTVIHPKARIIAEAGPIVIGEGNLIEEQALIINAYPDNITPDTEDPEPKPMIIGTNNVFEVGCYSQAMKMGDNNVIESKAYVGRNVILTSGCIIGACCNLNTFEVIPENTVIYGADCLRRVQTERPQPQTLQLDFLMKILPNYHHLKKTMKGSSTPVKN
UniProt Q13616, whole entry, looked up: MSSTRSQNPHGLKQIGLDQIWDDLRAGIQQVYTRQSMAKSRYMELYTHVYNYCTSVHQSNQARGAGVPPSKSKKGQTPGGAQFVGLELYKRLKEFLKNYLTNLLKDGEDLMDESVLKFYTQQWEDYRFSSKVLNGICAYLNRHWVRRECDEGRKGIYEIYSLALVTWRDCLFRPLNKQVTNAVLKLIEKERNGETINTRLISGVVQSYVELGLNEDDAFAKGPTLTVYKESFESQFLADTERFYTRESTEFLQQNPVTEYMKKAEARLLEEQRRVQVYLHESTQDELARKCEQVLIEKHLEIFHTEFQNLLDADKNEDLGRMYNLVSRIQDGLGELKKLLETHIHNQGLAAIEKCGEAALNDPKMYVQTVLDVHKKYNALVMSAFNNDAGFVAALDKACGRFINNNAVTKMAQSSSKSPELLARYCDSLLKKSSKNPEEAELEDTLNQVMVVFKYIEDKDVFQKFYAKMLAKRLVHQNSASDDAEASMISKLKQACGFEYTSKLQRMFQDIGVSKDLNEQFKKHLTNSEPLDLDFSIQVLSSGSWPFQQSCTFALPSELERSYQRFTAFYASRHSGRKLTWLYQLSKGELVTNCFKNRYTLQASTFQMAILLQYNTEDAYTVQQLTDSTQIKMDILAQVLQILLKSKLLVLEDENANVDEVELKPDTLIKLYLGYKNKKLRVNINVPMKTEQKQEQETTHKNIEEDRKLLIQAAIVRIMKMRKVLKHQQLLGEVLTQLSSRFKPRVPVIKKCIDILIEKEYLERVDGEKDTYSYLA
UniProt Q13561, whole entry, looked up: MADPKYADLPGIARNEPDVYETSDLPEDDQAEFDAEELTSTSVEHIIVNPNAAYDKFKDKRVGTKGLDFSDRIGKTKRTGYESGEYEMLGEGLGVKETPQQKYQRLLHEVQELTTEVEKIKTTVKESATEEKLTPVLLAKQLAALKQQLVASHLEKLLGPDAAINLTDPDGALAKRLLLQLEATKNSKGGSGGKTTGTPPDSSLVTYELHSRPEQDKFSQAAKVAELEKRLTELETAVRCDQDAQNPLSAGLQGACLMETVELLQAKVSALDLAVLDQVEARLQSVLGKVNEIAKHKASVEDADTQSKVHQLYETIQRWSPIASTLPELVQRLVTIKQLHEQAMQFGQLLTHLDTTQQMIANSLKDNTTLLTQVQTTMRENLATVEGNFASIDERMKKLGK
UniProt Q6PI48: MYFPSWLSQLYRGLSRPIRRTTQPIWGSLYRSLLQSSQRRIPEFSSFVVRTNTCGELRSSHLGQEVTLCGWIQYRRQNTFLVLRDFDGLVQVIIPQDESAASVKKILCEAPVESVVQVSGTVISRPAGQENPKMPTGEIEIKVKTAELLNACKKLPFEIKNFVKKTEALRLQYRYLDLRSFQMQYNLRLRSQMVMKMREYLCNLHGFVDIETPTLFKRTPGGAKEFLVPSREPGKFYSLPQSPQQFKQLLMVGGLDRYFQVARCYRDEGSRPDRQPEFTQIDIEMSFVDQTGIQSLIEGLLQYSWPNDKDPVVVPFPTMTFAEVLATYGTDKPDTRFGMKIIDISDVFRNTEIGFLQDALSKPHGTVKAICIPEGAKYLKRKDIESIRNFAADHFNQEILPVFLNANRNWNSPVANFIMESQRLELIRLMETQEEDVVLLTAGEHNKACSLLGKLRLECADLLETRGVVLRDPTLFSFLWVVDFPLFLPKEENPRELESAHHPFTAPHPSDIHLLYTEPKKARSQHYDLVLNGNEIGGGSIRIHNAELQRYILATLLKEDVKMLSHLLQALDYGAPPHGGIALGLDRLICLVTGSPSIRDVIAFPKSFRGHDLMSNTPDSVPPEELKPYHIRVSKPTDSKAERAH
UniProt Q96C57: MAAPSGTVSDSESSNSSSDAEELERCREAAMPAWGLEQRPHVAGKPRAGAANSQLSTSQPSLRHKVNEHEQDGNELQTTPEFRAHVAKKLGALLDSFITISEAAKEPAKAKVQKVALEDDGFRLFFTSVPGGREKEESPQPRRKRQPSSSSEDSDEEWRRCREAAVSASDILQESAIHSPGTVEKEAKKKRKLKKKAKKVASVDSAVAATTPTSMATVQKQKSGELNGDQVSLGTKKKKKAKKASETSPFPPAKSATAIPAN
UniProt Q9UJW0, whole entry, looked up: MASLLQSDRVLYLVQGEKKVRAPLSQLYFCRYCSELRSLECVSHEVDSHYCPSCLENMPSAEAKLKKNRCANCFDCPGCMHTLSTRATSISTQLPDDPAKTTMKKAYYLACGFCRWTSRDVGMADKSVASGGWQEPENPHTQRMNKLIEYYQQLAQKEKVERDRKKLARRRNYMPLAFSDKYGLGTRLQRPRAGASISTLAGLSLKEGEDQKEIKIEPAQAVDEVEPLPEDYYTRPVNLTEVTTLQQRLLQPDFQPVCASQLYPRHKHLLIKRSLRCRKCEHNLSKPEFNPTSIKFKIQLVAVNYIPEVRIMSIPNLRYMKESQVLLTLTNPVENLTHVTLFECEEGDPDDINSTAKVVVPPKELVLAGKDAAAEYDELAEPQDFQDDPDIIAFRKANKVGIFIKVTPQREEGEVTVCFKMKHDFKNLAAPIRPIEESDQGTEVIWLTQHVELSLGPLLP

log2 fold change, inactive:
DCTN6 (UniProt O00399) 0.017
CUL1 (UniProt Q13616) -0.019
DCTN2 isoform 2 (UniProt Q13561) -0.005
DARS2 (UniProt Q6PI48) -0.025
CUSTOS (UniProt Q96C57) 0.036
DCTN4 (UniProt Q9UJW0) -0.021

— the supplement of paper PMC10849652
